Measured values: PubChem BioAssay AID504444 (National Center for Advancing Translational Sciences (NCATS), 2011)
Among all 360,000 compounds or so, about 7,500 (2.1%) were called active. Inconclusive means that the source gave no clear call. Such entries were picked first, then a sample of the others. The call rests on the fitted dose curve; in most records, active means well fitted inhibition curve with a large enough effect; inconclusive means small, poorly fitted or top-dose-only effect, or effect the other way; inactive means flat fitted curve, though single readings scatter. Potencies beside an inconclusive call are fits to weak or partial responses and may not hold up.

Test: Nrf2 qHTS screen for inhibitors; further: nearly all actives have a fitted effect of over 60% in size
Settings: A549 ARE-Fluc reporter, luciferase luminescence, 18-24 h; activity change, negative = inhibition: at 46 µM (top of the series)
In short: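 A549 ARE_Fluc cells (5000/well, 5% FBS OPTI-MEM) pre-incubated 2 h, then treated with compounds 18-24 h at 37C/5% CO2 in concentration-response. CellTiter-Fluor viability read first; BugLite luciferase luminescence after 15 min at room temperature gives Nrf2 activity.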
On the % scale 0 is the no-effect control and ±100 the full control effect; potency means the concentration at half of the fitted maximal effect.

SMILES | Potency | activity change, negative = inhibition
CCN1C(=O)CC(Sc2ccccc2C(=O)O)C1=O (centres undefined) | inconclusive: 6.51 µM [activator, single point] | 
CCC(C)n1cnc2c(c1=O)c1nc3ccccc3nc1n2Cc1ccc(OC)cc1 (centres undefined) | inconclusive: 18.4 µM [falling, single point] | 
CCC(Oc1ccccc1)C(=O)Nc1nc2ccccc2[nH]1 (centres undefined) | inconclusive: 25.9 µM [falling, partial curve, poor fit] | 
N#Cc1cc(NC2CCCC2)c([N+](=O)[O-])cc1C#N | inconclusive: 29.1 µM [falling, single point] | 
COc1ccc(C(=O)NC(=S)NC2CCSC2=O)cc1 (centres undefined) | inconclusive: 9.2 µM [activator, partial curve, poor fit] | 
O=c1c2cnn(-c3ccc(Cl)cc3)c2ncn1Cc1ccc(Cl)cc1Cl |  | inactive: 15.5%
CCOc1cc(CC(=O)N[C@@H](CC(C)C)c2ccccc2N2CCCCC2)ccc1C(=O)O | inconclusive: 23.1 µM [falling, partial curve, poor fit] | 
COc1ccc2oc(C(=O)Nc3ccc(C)cn3)c(C)c2c1 | inconclusive: 7.31 µM [activator, partial curve, poor fit] | 
Cc1cnc(C(=O)OC(C)C(=O)NCc2ccccc2)cn1 (centres undefined) |  | inactive: 3.1%
COc1ccccc1NC(=O)N1c2ccccc2Sc2ccccc21 | inconclusive: 16.4 µM [falling, partial curve, poor fit] | 
COc1ccc(OC)c(-n2nnc3c(sc4nc(C)c(Br)c(C)c43)c2=O)c1 | inconclusive: 23.1 µM [falling, partial curve, poor fit] | 
CN(Cc1ccccc1)C(=O)c1ccc(NC(=O)Cc2ccc([N+](=O)[O-])cc2)cc1 | inconclusive: 29.1 µM [falling, single point] | 
CCOC(=O)c1c[nH]c(=S)n(-c2ccccc2)c1=O |  | inactive: -19.5%
Cc1cccc(N2CCN(C(=O)Cn3cccc3C(=O)c3ccccc3)CC2)c1C | inconclusive: 29.1 µM [falling, single point] | 
Cc1ccsc1CCN1C(=O)N(c2ccccc2)C(=O)C1CC(=O)Nc1ccc(F)cc1 (centres undefined) |  | inactive: -7.16%
COc1ccc(-c2nc3cc(NC(=O)Cc4ccc(Cl)cc4)ccc3o2)cc1OC | active: 23.1 µM | 
COc1cc(C(=O)NC(C)c2cnn(-c3ccccc3C)c2C)cc(OC)c1OC (centres undefined) | inconclusive: 3.26 µM [falling, partial curve, poor fit] | 
Cn1c(C(=O)Nc2ccc(Cl)cc2)cc2cc(Cl)ccc21 |  | inactive: 1.08%
O=C(Nc1ccc(N2CCOCC2)nc1)c1cccs1 | inconclusive: 2.06 µM [activator, full curve, poor fit] | 
Nc1ccc(N2CCCCC2)c(Cl)c1 | inconclusive: 23.1 µM [activator, partial curve, poor fit] | 
COc1cccc(C(=O)NNC(=O)Cc2ccc(Cl)cc2)c1 |  | inactive: 3.83%
CC(C)Cn1c(N2CCN(CC(=O)Nc3ccc(Cl)cc3)CC2)nc2ccccc21 | inconclusive: 20.6 µM [activator, single point] | 
CCOC(=O)c1ccc(NC(=O)Cn2nc(SC)c(S(=O)(=O)c3ccc(Cl)cc3)c2N)cc1 | inconclusive: 29.1 µM [falling, single point] | 

SMILES | Potency | activity change, negative = inhibition
c1ccc(CN=C(NCc2ccccc2)NCc2ccccc2)cc1 | inconclusive: 25.9 µM [falling, single point] | 
CC(C)CC(=O)Nc1nnc(S(=O)(=O)N2CCCCCC2)s1 | inconclusive: 5.8 µM [activator, full curve] | 
COc1cccc(C2N=C(c3ccccc3C)NO2)c1OC (centres undefined) |  | inactive: 19.7%
CCN(CC(=O)NCc1ccc(F)cc1)C(=O)CCNS(=O)(=O)c1cccc(C)c1 |  | inactive: -0.416%
CCCSc1nnc(-c2ccccc2N)c(=O)[nH]1 | inconclusive: 9.2 µM [activator, partial curve, poor fit] | 
c1ccc(CSCCc2ccncc2)cc1 | inconclusive: 14.6 µM [falling, partial curve, poor fit] | 
Cc1ccc(S(=O)(=O)NCCC(=O)Nc2cc(S(=O)(=O)N(C)C)ccc2C)cc1C | active: 7.31 µM | 
CN(C(=O)CSc1nc2ccc(NC(=O)c3cccc(F)c3)cc2s1)c1ccccc1 | active: 20.6 µM | 
COc1cc(Cl)c(C)cc1NC(=O)CC1Oc2ccccc2NC1=O (centres undefined) |  | inactive: 12.7%
COc1ccc2nc(NC(=O)CSc3cn[nH]n3)sc2c1 | inconclusive: 14.6 µM [activator, partial curve] | 
CC(C)c1ccccc1OCC(=O)NN1C(=O)c2ccccc2C1=O | inconclusive: 6.51 µM [activator, full curve, poor fit] | 
CN(CCc1nc2ccc(Cl)cc2[nH]1)Cc1nc(CC2CC2)no1 |  | inactive: -0.0401%
Fc1ccc2cc(-c3ccsc3)ncc2c1 | inconclusive: 7.31 µM [activator, partial curve] | 
COc1ccc(Cn2c(C(=O)O)c(CNCc3ccc(OC)cc3OC)c3ccc(C)cc32)cc1 | inconclusive: 9.2 µM [falling, partial curve] | 
CCc1ccc2oc(-c3cc(N=Cc4cccc(OC)c4O)ccc3O)nc2c1 | inconclusive: 20.6 µM [activator, partial curve] | 
COC(=O)c1cccc(Cn2nc(C)c([N+](=O)[O-])c2C)c1 | inconclusive: 14.6 µM [falling, single point] | 
CCCCc1ccc(S(=O)(=O)NC2CCS(=O)(=O)C2)cc1 (centres undefined) | active: 18.4 µM | 
O=C(Nc1ccccc1Cl)O/N=C/c1ccc(F)cc1 | inconclusive: 20.6 µM [activator, partial curve] | 
O=C1/C(=C\c2cccs2)SC(=S)N1C1CCS(=O)(=O)C1 (centres undefined) | inconclusive: 18.4 µM [activator, single point] | 
COc1ccc(C2=NS(=O)(=O)N(C)C(C(=O)NC3CCCCC3)=C2)cc1OC | inconclusive: 25.9 µM [falling, single point] | 
O=C(/C=C/c1cc([N+](=O)[O-])ccc1OC(F)F)Nc1cccc(OC(F)F)c1 | inconclusive: 32.6 µM [falling, partial curve, poor fit] | 
COc1ccc(CCN(C)c2ccc(S(=O)(=O)N3CCCC3)cc2[N+](=O)[O-])cc1OC | inconclusive: 6.51 µM [falling, full curve, poor fit] | 
Cc1cc(C)n(-c2ccc(C(=O)Nc3ccc(S(=O)(=O)N(C)C)cc3)cc2)n1 | inconclusive: 29.1 µM [falling, single point] | 

Shown as comma-separated lines: part of the list above.
SMILES,Potency,"activity change, negative = inhibition"
CC(C)CC(=O)Nc1nnc(S(=O)(=O)N2CCCCCC2)s1,"inconclusive: 5.8 µM [activator, full curve]",
COc1cccc(C2N=C(c3ccccc3C)NO2)c1OC (centres undefined),,inactive: 19.7%
CCN(CC(=O)NCc1ccc(F)cc1)C(=O)CCNS(=O)(=O)c1cccc(C)c1,,inactive: -0.416%

Additional records

SMILES | Potency | activity change, negative = inhibition
O=S(=O)(c1ccc(C2CCCCC2)cc1)N1CCN(c2cc(Cl)ccc2Cl)CC1 |  | inactive: -0.0274%
COc1ccccc1N(CC(=O)N1CCCCCC1)S(=O)(=O)c1ccc(C)cc1 | inconclusive: 6.51 µM [activator, partial curve, poor fit] | 
COc1ccc(-c2cc(C(=O)N3CCCC3)c3ccccc3n2)cc1 | inconclusive: 29.1 µM [falling, single point] | 
Cc1ccsc1C(=O)OCC(=O)Nc1cccc(F)c1 | inconclusive: 8.2 µM [activator, partial curve] | 
CCC(Sc1nc2nccnc2c(=O)n1Cc1ccccc1Cl)C(=O)NC1CCCCC1 (centres undefined) |  | inactive: 11.1%
CCN(CC)c1nc(-c2ccccc2)ncc1S(=O)(=O)c1ccc(C)cc1 | inconclusive: 32.6 µM [falling, partial curve, poor fit] | 
CNc1nc(-c2ccccc2)nnc1C(F)(F)F | inconclusive: 1.03 µM [falling, partial curve, poor fit] | 
Cc1ccc2nc(NCc3ccccc3)c3nncn3c2c1 |  | inactive: 0.0398%
Cc1ccc(NC(=O)c2ccc(NCCN)c([N+](=O)[O-])c2)cc1 |  | inactive: 1.47%
CC(C)=CCC/C(C)=C/CNC(=O)C[C@H]1C[C@H](C(=O)N2CCOCC2)[C@@]2(C)c3[nH]c4cc(-c5ccco5)ccc4c3CCN2C1=O | inconclusive: 29.1 µM [falling, single point] | 
COc1ccccc1NC(=O)CSc1nc2n[nH]c(C)c2c(=N)n1-c1ccccc1Cl | active: 13 µM | 
O=C(NCCc1ccccc1)c1ccc([N+](=O)[O-])cc1 | inconclusive: 2.91 µM [activator, partial curve, poor fit] | 
CN(c1ccccc1)S(=O)(=O)c1cccc(NC(=O)c2cncc(Br)c2)c1 | inconclusive: 32.6 µM [falling, single point] | 
O=S(=O)(c1cccc(COc2c(Cl)cccc2Cl)c1)N1CCOCC1 | inconclusive: 9.2 µM [falling, partial curve] | 
COc1ccc(N(C(=O)c2ccco2)C(C(=O)NC2CCCCC2)c2cccs2)cc1OC (centres undefined) |  | inactive: -9.59%
Cc1nc2cc(NC(=O)NCCC3=CCCCC3)ccc2o1 | inconclusive: 23.1 µM [activator, single point] | 
NC(=O)c1ccc(NC(=O)CNC(c2ccccc2)c2ccccc2)cc1 | inconclusive: 23.1 µM [falling, single point] | 
O=C(C1COc2ccccc2O1)N1CCN(c2nc3c(F)cc(F)cc3s2)CC1 (centres undefined) | inconclusive: 29.1 µM [falling, single point] | 
COc1ccc(CNc2ncnc3nc[nH]c23)cc1 |  | inactive: 8.45%
CCCOC(=O)c1ccc(OCC(O)Cn2c(C)nc3ccccc32)cc1 (centres undefined) |  | inactive: 12.7%
O=C(NCCCC(NC(=O)OCc1ccccc1)C(=O)O)OCc1ccccc1 (centres undefined) | inconclusive: 16.4 µM [falling, single point] | 
COc1cccc(/C=N/Nc2ncnc3scc(-c4ccccc4)c23)c1OC | active: 13 µM | 
CC(C)CCNC(=O)CN(Cc1ccc2c(c1)OCO2)C(=O)CCC(=O)Nc1ccccn1 | inconclusive: 4.11 µM [activator, partial curve, poor fit] | 
